Results reported in patent publication US20250195645A1, “COMBINATION OF MULTISPECIFIC MOLECULE AND IMMUNE CHECKPOINT INHIBITOR” (DAIICHI SANKYO COMPANY, LIMITED, priority 2022, published 2025).
Where a chain is given by its changes, count along the chain named. Some of these results come from one statement about several compounds together.

B1: NYA-1143: anti-HLA/NY-ESO scFv, amino acids 21 to 266 of SEQ ID NO: 20 (protein)
scFv: EVQLVESGGGVVQPGRSLTPSCSASGFSIRSYDIHWVRLAPGKGLEWVATISYDGSQKYFADSVKGRFTIFRDESENMVYLQMSGLRVEDTAVYHCARGSSGHYEAFDIWGQGTMVTVSSGGGGSGGGGSGGGGSQSVLTQPPSVSAAPGQKVTISCSGSSSNIGNWYVSWYQQLPGTAPKLLIYDNNKRPSGIPDRFSGSKSGTSATLGITGLQTGDEADYYCGTWDSSLSAPWVFGGGTKVTVL
modifications: humanized
B2: NYA-2044: anti-HLA/NY-ESO scFv, amino acids 21 to 266 of SEQ ID NO: 24 (protein)
scFv: EVQLVESGGGLVQPGGSLRLSCAASGFSIRSYDIHWVRLAPGKGLEWVATISYDGSQKYYADSVKGRFTISRDESKNTLYLQMNSLRAEDTAVYHCARGSSGHYEAFDIWGQGTLVTVSSGGGGSGGGGSGGGGSQSVLTQPPSVSAAPGQKVTISCSGSSSNIGNWYVSWYQQLPGTAPKLLIYDNNKRPSGIPDRFSGSKSGTSATLGITGLQTGDEADYYCGTWDSSLSAPWVFGGGTKVTVL
modifications: humanized
B3: NYA-2045: anti-HLA/NY-ESO scFv, amino acids 21 to 266 of SEQ ID NO: 25 (protein)
scFv: EVQLVESGGGLVQPGGSLRLSCAASGFSIRSYDIHWVRLAPGKGLEWVATISYDGSQKYYADSVKGRFTISRDESKNTLYLQMNSLRAEDTAVYHCARGSSGHYEAFDIWGQGTLVTVSSGGGGSGGGGSGGGGSQSVLTQPPSASGTPGQRVTISCSGSSSNIGNWYVSWYQQLPGTAPKLLIYDNNKRPSGVPDRFSGSKSGTSASLAISGLQSEDEADYYCGTWDSSLSAPWVFGGGTKLTVL
modifications: humanized
B4: NYA-2143: anti-HLA/NY-ESO scFv, amino acids 21 to 266 of SEQ ID NO: 21 (protein)
scFv: B1 scFv with Q174R
modifications: humanized
B5: NYA-1154: anti-HLA/NY-ESO scFv, amino acids 21 to 266 of SEQ ID NO: 71 (protein)
scFv: B1 scFv with I34M, L39Q, G102N, W167N, Q174R, T226A
modifications: humanized

Biological target: T1, HLA/NY-ESO (Homo sapiens, UniProt P04439+P78358)
T1 construct: a truncated form of HLA-A*0201 (GenBank: ASA47534.1); a peptide consisting of 9 amino acids from positions 157 to 165 of NY-ESO-1 or LAGE-1
Assay: Binding of anti-HLA/NY-ESO scFv to antigen (SPR, BLI, ELISA or RIA)
Settings: read-out: KD value with respect to HLA/NY-ESO

Molecule | Kd [nM]
B1 | ≤ 1
B2 | ≤ 1
B3 | ≤ 1
B4 | ≤ 1
B5 | ≤ 1
